Assay results from PubChem BioAssay (EPA / NIEHS).
“And” between values parts separate entries of the source, which are not always exact repeats. Identical values can stand only once. This list was built around the results that the source calls inconclusive (neither active nor inactive); the mix of calls is not that of the screen. For some of these results: A potency beside an inconclusive call is a rough fit, not a confirmed value. Some compounds were tested as several samples or in several runs, with calls that do not always agree. The source made the active and inactive calls. How the source made its calls: active means hit-call score of the fitted dose curve at least 0.9, where 1 is the maximum; inconclusive means response in the unintended direction; inactive means score below 0.9.

The chains behind the UniProt entries cited, without tags or fusion partners. Where a name states a change or a piece, a line headed by the entry shows the natural chain unless it says otherwise.
UniProt P19793: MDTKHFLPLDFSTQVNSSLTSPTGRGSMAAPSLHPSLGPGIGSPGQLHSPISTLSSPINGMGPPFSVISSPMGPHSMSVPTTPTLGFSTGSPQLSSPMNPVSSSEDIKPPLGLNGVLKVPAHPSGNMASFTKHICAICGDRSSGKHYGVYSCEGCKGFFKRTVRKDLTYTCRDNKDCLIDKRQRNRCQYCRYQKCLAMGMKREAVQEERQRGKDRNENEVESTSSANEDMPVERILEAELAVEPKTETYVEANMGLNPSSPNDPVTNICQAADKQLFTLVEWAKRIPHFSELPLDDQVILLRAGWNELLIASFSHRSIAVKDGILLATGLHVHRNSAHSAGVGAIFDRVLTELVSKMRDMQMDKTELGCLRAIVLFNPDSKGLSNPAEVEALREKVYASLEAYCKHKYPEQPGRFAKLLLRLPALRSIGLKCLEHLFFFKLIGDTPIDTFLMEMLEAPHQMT
UniProt P37231: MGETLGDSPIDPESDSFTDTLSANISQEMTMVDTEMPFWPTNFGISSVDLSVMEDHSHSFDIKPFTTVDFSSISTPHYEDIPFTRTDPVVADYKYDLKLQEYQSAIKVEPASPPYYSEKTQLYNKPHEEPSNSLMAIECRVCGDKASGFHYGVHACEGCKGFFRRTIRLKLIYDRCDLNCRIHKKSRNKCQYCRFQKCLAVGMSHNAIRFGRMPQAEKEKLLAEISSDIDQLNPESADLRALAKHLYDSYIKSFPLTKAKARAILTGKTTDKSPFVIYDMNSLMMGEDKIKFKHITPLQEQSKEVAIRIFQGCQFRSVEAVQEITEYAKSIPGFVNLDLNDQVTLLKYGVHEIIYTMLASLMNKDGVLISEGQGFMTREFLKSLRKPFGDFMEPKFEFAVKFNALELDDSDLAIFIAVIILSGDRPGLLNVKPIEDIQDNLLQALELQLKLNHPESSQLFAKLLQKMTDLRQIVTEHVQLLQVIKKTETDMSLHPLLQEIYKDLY
UniProt P04637, whole entry, looked up: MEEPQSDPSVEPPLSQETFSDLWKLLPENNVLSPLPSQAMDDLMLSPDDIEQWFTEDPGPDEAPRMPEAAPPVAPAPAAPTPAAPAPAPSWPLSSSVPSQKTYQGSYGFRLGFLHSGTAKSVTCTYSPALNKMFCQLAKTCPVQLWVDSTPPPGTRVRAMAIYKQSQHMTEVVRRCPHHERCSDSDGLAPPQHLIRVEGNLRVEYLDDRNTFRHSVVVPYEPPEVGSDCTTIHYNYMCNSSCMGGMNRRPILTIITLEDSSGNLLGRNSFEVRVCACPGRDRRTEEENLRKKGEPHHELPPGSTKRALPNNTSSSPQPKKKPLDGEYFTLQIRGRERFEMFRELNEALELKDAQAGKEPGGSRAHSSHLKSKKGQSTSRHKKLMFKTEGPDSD

Key:
[1] = molecular target: Retinoic acid receptor RXR-alpha (Homo sapiens) (UniProt P19793); test: OT_NURR1_NURR1RXRa_0480: Odyssey Thera (OT) 8-hour HEK293T Protein Complementation Assay for Nurr1/retinoid X receptor (RXR) (AID 2283385)
Procedure, shortened: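 Interaction of Nurr1 with RXRα read as reconstituted reporter fluorescence in a HEK293T fragment-complementation system, 8 h post-treatment; increase over DMSO baseline analysed.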

[2] = molecular target: Retinoic acid receptor RXR-alpha (Homo sapiens) (UniProt P19793); test: OT_NURR1_NURR1RXRa_1440: Odyssey Thera (OT) 24-hour HEK293T Protein Complementation Assay for Nurr1/retinoid X receptor (RXR) (AID 2283386)
Procedure, shortened: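 Gain in fluorescence, fitted relative to DMSO, reflects Nurr1–RXRα association in HEK293T cells after 24 h dosing. Bait and prey are each linked to a reporter-protein fragment that reassembles on interaction.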

[3] = molecular target: Peroxisome proliferator-activated receptor gamma (Homo sapiens) (UniProt P37231); test: OT_PPARg_PPARgSRC1_1440: Odyssey Thera (OT) 24-hour Protein-Complementation Assay for Peroxisome Proliferator-activated Receptor Gamma/ SRC-1 Co-activator (AID 2283388)
Procedure, shortened: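 HEK293T transiently transfected with PPARg/SRC-1 split-Venus YFP fusions 48 h before dosing, then treated 24 h at 37C. Fixed cells imaged; nuclear/cytoplasmic 488 nm fluorescence ratio, gain of signal versus DMSO.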

[4] = TOX21_p53_BLA_p2_viability: Viability Assessment in the Tox21 HCT-116 p53 Agonism Beta-lactamase Assay, Phase 2 (AID 2283591);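 further: actives lower the ATP signal meaning cytotoxicity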
Procedure, shortened: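 HCT116 p53-bla cells, 4000/well, dosed after 5 h plating (217-fold dilution of DMSO stocks) and incubated 16 h at 37C. Viability taken as cellular ATP by CellTiter-Glo luminescence after 30 min RT; signal loss marks cytotoxicity.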

[5] = molecular target: Cellular tumor antigen p53 (Homo sapiens) (UniProt P04637); test: TOX21_p53_BLA_p2_ratio: Tox21 HCT-116 p53 Agonism Beta-lactamase Assay, Ratio, Phase 2 (AID 2283592)
Procedure, shortened: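 First, HCT116 reporter cells settle for 5 h at 37C. Next, DMSO compound solutions are pinned in (217-fold dilution) and left 16 h. Finally, CCF4-AM substrate is loaded 2 h at room temperature and the 460/530 nm ratio read.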

[6] = TOX21_p53_BLA_p3_viability: Viability Assessment in the Tox21 HCT-116 p53 Agonism Beta-lactamase Assay, Phase 3 (AID 2283593);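 further: cells exposed to compound for 16 h before reading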
Procedure, shortened: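 HCT116 cells, 4000/well, dosed 5 h after plating by pin transfer (217-fold dilution from DMSO stock) and incubated 16 h at 37C, 5% CO2. Viability read as ATP luminescence with CellTiter-Glo after 30 min at room temperature.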

[7] = molecular target: Cellular tumor antigen p53 (Homo sapiens) (UniProt P04637); test: TOX21_p53_BLA_p3_ratio: Tox21 HCT-116 p53 Agonism Beta-lactamase Assay, Ratio, Phase 3 (AID 2283596)
Procedure, shortened: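 Cells were seeded at 4000/well, rested 5 h at 37C, then dosed with DMSO compound solutions (217-fold dilution) for 16 h. CCF4-AM substrate was loaded for 2 h at room temperature, and the 460/530 nm emission ratio was fitted for gain of signal versus DMSO.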

[8] = TOX21_p53_BLA_p5_viability: Viability Assessment in the Tox21 HCT-116 p53 Agonism Beta-lactamase Assay, Phase 5 (AID 2283600)
Procedure, shortened: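 Decreased CellTiter-Glo luminescence denotes lost viability. Exposure: 16 h at 37C, 5% CO2, with compounds from DMSO stocks diluted 217-fold in wells of 4000 cells.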

[9] = Tanguay_ZF_120hpf_AXIS_legacy: (Legacy) Oregon State University Tanguay Lab 120 Hour Post-fertilization zebrafish Assay for Body Axis Malformation (AID 2283635);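 on AC50: potency for an increased fraction of larvae scored with body axis malformation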
Procedure, shortened: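 Dechorionated wild-type Tropical 5D zebrafish embryos, one per well, statically exposed from 6 hpf to 120 hpf at 28C in 0.64% DMSO final. Body axis malformation scored present/absent by brightfield microscopy at 120 hpf; dead embryos excluded.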

[10] = TOX21_p53_BLA_p4_viability: Viability Assessment in the Tox21 HCT-116 p53 Agonism Beta-lactamase Assay, Phase 4 (AID 2283597);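 further: hits lower the luminescence signal meaning cytotoxicity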
Procedure, shortened: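 4000 HCT116 cells per well; 5 h attachment; compounds from DMSO, 217-fold dilution; 16 h at 37C. Then CCF4-AM, 2 h RT, followed by CellTiter-Glo, 30 min RT, luminescence. Decrease = cytotoxicity.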

[11] = molecular target: Cellular tumor antigen p53 (Homo sapiens) (UniProt P04637); test: TOX21_p53_BLA_p5_ratio: Tox21 HCT-116 p53 Agonism Beta-lactamase Assay, Ratio, Phase 5 (AID 2283599)
Procedure, shortened: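 HCT-116 p53-bla cells (4000/well) plated 5 h, dosed with compound (217-fold DMSO dilution) for 16 h at 37 C; CCF4-AM substrate 2 h at room temperature. Activity is the 460/530 nm emission ratio (405 nm excitation), fitted in gain-of-signal direction versus DMSO.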

[12] = molecular target: Cellular tumor antigen p53 (Homo sapiens) (UniProt P04637); test: TOX21_p53_BLA_p4_ratio: Tox21 HCT-116 p53 Agonism Beta-lactamase Assay, Ratio, Phase 4 (AID 2283601)
Procedure, shortened: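 HCT-116 p53 beta-lactamase reporter cells (4000/well) preincubated 5 h, then compound (217-fold dilution of DMSO stock) for 16 h at 37C. CCF4-AM substrate added 2 h at room temperature; 460/530 nm emission ratio fitted upward versus DMSO.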

[13] = Tanguay_ZF_120hpf_JAW_legacy: (Legacy) Oregon State University Tanguay Lab 120 Hour Post-fertilization zebrafish Assay for Jaw Malformation (AID 2283638);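 further: active means more embryos with jaw malformation than DMSO controls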
Procedure, shortened: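 Dechorionated Tropical 5D wild-type zebrafish embryos, one per well, exposed statically from 6 hpf to 120 hpf at 28C in 0.64% DMSO. Jaw malformation was scored by brightfield microscopy as present or absent. It was not scored in dead embryos.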

[14] = ATG_XTT_Cytotoxicity: Cytotoxicity Assessment in the Attagene TRANS-FACTORIAL HepG2 Assay (AID 2283584);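 further: XTT signal for cell number as viability in transfected HepG2 cells; cells exposed to compound for 24 h before reading; active means loss of viability signal versus DMSO baseline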
Procedure, shortened: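 HepG2 cells transiently transfected with GAL4-UAS multiple reporter units, dosed 24 h; cytotoxicity read by XTT as loss of signal versus DMSO baseline.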

[15] = Tanguay_ZF_120hpf_EYE_legacy: (Legacy) Oregon State University Tanguay Lab 120 Hour Post-fertilization zebrafish Assay for Eye Malformation (AID 2283636);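 further: binary presence or absence of eye malformation scored by brightfield in 120 hpf larvae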
Procedure, shortened: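 5D wild-type embryos, pronase-dechorionated at 4 hpf; static exposure 6–120 hpf, 28C, dark; DMSO 0.64% final; 5uM trimethyltin chloride positive control. Binary eye-defect scoring at 120 hpf; dead embryos not scored.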

In the case of CSC(=O)c1cccc2nnsc12, the outcome [1] was “inactive”, the AC50 [2] was inconclusive: 0.302 µM and the AC50 [3] was inconclusive: 50 µM. For the same compound, the AC50 [4] was inconclusive: 14.2 µM, the outcome [5] was “inactive” and the AC50 [6] was inconclusive: 14 µM. The outcome [7] was “inactive”, the AC50 [8] was inconclusive: 46.1 µM and the outcome [9] was “inactive”.

In the case of CC1(C)NC(=O)N(c2ccc([N+](=O)[O-])c(C(F)(F)F)c2)C1=O, the AC50 [1] was inconclusive: 0.5 µM, the AC50 [2] was inconclusive: 16.6 µM and inconclusive: 5.81 µM and the outcome [2] was “inactive”. For the same compound, the outcome [4] was “inactive”, the outcome [6] was “inactive” and the outcome [10] was “inactive”. For the same compound, the AC50 [9] was inconclusive: 36.7 µM.

For Cc1nn(C)c(Oc2ccccc2)c1C=NOCc1ccc(C(=O)OC(C)(C)C)cc1, the AC50 [1] was active: 11.3 µM, the AC50 [2] was active: 15.7 µM and the outcome [2] was “inactive”. For the same compound, the AC50 [5] was active: 0.0043 µM, the outcome [10] was “inactive” and the outcome [8] was “inactive”.

With CCN(CC)C(=O)c1cc(S(=O)(=O)Cc2ccccc2)c(N2CCC(c3ccccc3)CC2)cc1N(CC)CCN(C)C the AC50 [1] was inconclusive: 23.2 µM and active: 4.48 µM, the AC50 [2] was inconclusive: 6.65 µM and active: 4.48 µM and the AC50 [3] was inconclusive: 19 µM. The AC50 [4] was active: 29.4 µM and active: 33.5 µM, the AC50 [5] was inconclusive: 17.5 µM and the AC50 [6] was active: 30.3 µM. For the same compound, the AC50 [10] was active: 17.9 µM and active: 25.1 µM, the outcome [11] was “inactive” and the AC50 [8] was active: 40.1 µM. For the same compound, the AC50 [12] was active: 32.6 µM and active: 42.6 µM and the AC50 [9] was active: 18.2 µM.

With CC(=O)NC1(c2cccc(F)c2)CCN(CC[C@@]2(c3ccc(Cl)c(Cl)c3)CN(c3ccccc3)C(=O)CO2)CC1 the AC50 [1] was inconclusive: 6.5 µM and inconclusive: 74.6 µM, the AC50 [2] was inconclusive: 41.5 µM and the outcome [2] was “inactive”. For the same compound, the AC50 [4] was active: 57.1 µM, the AC50 [5] was active: 71.4 µM and the AC50 [6] was active: 66.9 µM. For the same compound, the AC50 [7] was active: 71.6 µM, the AC50 [10] was active: 46.2 µM and the AC50 [11] was active: 70.3 µM. The AC50 [8] was active: 60.3 µM, the AC50 [12] was active: 65 µM and the AC50 [9] was inconclusive: 94.7 µM. The AC50 [13] was inconclusive: 28.1 µM.

For CC(C)(C)c1cc(/C=C2\SC(N)=NC2=O)cc(C(C)(C)C)c1O, the AC50 [1] was inconclusive: 50 µM, the outcome [2] was “inactive” and the AC50 [3] was active: 66 µM. The outcome [6] was “inactive”, the outcome [7] was “inactive” and the AC50 [10] was active: 84.4 µM. For the same compound, the AC50 [11] was active: 90.1 µM, the AC50 [8] was active: 76.4 µM and the AC50 [12] was active: 62.3 µM. The AC50 [9] was inconclusive: 202 µM.

In the case of CCN(CC)c1ccc2c(-c3ccccc3C(=O)O)c3ccc(=[N+](CC)CC)cc-3oc2c1, the AC50 [1] was active: 12.7 µM, the AC50 [2] was active: 16.1 µM and the AC50 [3] was active: 12 µM. For the same compound, the outcome [4] was “inactive”.

With Cc1cccc([N+](=O)[O-])c1C the outcome [1] was “inactive”, the AC50 [2] was inconclusive: 50 µM and the outcome [2] was “inactive”. The AC50 [14] was inconclusive: 0.694 µM, the outcome [5] was “inactive” and the AC50 [10] was inconclusive: 47.3 µM. For the same compound, the AC50 [8] was inconclusive: 15.1 µM and the AC50 [12] was inconclusive: 46.1 µM and inconclusive: 76.9 µM.

With CCCCC/C=C\C/C=C\CCCCCCCC(=O)OC the AC50 [1] was active: 12 µM, the AC50 [2] was active: 50 µM and the AC50 [14] was inconclusive: 100 µM. For the same compound, the AC50 [4] was active: 66.2 µM, the AC50 [5] was active: 74.7 µM and the AC50 [10] was inconclusive: 69 µM. The outcome [10] was “inactive”, the AC50 [11] was active: 73.3 µM and the outcome [8] was “inactive”. For the same compound, the AC50 [12] was inconclusive: 45.7 µM and the outcome [12] was “inactive”.

For NC(=NCCCCCCN=C(N)/N=C(\N)Nc1ccc(Cl)cc1)/N=C(\N)Nc1ccc(Cl)cc1, the AC50 [1] was inconclusive: 83.3 µM, the AC50 [2] was inconclusive: 28.9 µM and the AC50 [14] was active: 31.6 µM. The AC50 [5] was active: 59.8 µM [middle of 4 runs], the AC50 [7] was active: 72.6 µM [middle of 4 runs] and the outcome [7] was “inactive”. For the same compound, the AC50 [12] was active: 71.4 µM [middle of 5 runs].

With Nc1ccc(Nc2ccccc2)cc1 the outcome [1] was “inactive”, the outcome [2] was “inactive” and the AC50 [14] was inconclusive: 20.8 µM. The AC50 [4] was inconclusive: 0.000118 µM, the AC50 [5] was active: 86 µM and the outcome [7] was “inactive”. For the same compound, the AC50 [8] was inconclusive: 46.1 µM and the AC50 [15] was active: 45.8 µM.

In the case of O=C(O)c1cccc(C(=O)O)n1, the outcome [1] was “inactive”, the outcome [2] was “inactive” and the AC50 [14] was inconclusive: 100 µM. For the same compound, the AC50 [4] was inconclusive: 46.1 µM, the AC50 [10] was inconclusive: 9.14 µM and the outcome [8] was “inactive”.
